PubChem BioAssay AID504744 | Drosophila RNAi Screening Center – 2011

Purpose: 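Uncover factors, including feedback loops, that control dAkt activation in fly cells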 (primary screen)
System: Drosophila Kc167 cells
Reagent: long dsRNA against Drosophila genes, 250 ng dsRNA per well of a 384-well plate
Timing: 3 days of knock-down, then overnight serum-free starvation before stimulation
Challenge: bovine insulin at 387 nM for 10 minutes after 12 h without serum
Detection: 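In-cell antibody fluorescence for phospho-dAkt in each well over DNA-dye signal, with log2 residuals expressed as z-scores adjusted for cell count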
Rule for the call: 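Hit in the insulin screen when the two-replicate mean z-score is more extreme than plus or minus 2.5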
The deposit covers about 23,000 reagents; this is an unselected part of those with a known target gene and a result. Of all reagents, 98 (0.43%) were called active. 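Only hit calls are given; the phospho-dAkt signals, z-scores and hit direction were not deposited.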 The numbers tell different reagents against one gene apart. A plus sign joins genes that one reagent is predicted to hit.

| predicted target | dsRNA no. | Call |
| --- | --- | --- |
| CG11030 | 1 | inactive |
| mthl13 | 1 | inactive |
| CG9701 | 1 | inactive |
| CG14230 | 1 | inactive |
| Mmp2 | 1 | inactive |
| Mmp2 | 2 | inactive |
| CG42336 | 1 | inactive |
| CG42336 | 2 | inactive |
| CG42336 | 3 | inactive |
| Idh3g | 1 | inactive |
| CG15210 | 1 | inactive |
| lectin-24A | 1 | inactive |
| Trmt61 | 1 | inactive |
| CG7841 | 1 | inactive |
| CG4744 | 1 | inactive |
| beat-IIIb | 1 | inactive |
| eIF2Bbeta | 1 | inactive |
| eIF4E7 | 1 | inactive |
| eIF4E7 | 2 | inactive |
| Muc12Ea | 1 | inactive |
| CG5172 | 1 | inactive |
| ft | 1 | inactive |
| CG42758 | 1 | inactive |
| gek | 1 | inactive |
| Cpr97Eb | 1 | inactive |
| CG33191 + Pif1B | 1 | inactive |
| Muc30E | 1 | inactive |
| U2af38 | 1 | inactive |
| HemK1 | 1 | inactive |
| CG11951 | 1 | inactive |
| inaC | 1 | inactive |
| Atg10 | 1 | inactive |
| Orc6 | 1 | inactive |
| PNPase | 1 | inactive |
| CG6220 | 1 | inactive |
| NTPase | 1 | inactive |
| CG14427 | 1 | inactive |
| CG33234 | 1 | inactive |
| CG12986 | 1 | inactive |
| CecA1 | 1 | inactive |
| CG4594 | 1 | inactive |
| Mocs2A + Mocs2B | 1 | inactive |
| Mocs2A + Mocs2B | 2 | inactive |
| Tet | 1 | inactive |
| Tsp42Ee | 1 | inactive |
| CG6472 | 1 | inactive |
| CG12974 | 1 | inactive |
| InR | 1 | active |
| GLaz | 1 | inactive |
| SIFa | 1 | inactive |
| raw | 1 | active |
| raw | 2 | inactive |
| CG15306 | 1 | inactive |
| CG15306 | 2 | inactive |
| term | 1 | inactive |
| Smyd5 | 1 | inactive |
| CG33257 | 1 | inactive |
| Tsp42Eg | 1 | inactive |
| CG18371 | 1 | inactive |
| AstC-R2 | 1 | inactive |
| Hsl | 1 | inactive |
| Rab9Db + Rab9Fa | 1 | inactive |
| porin | 1 | inactive |
| CG42380 + CG42379 + PIG-M + 1 more | 1 | inactive |
| CG42380 + CG42379 + PIG-M + 1 more | 2 | inactive |

Laid out differently: results already given.
predicted target | dsRNA no. | Call
GLaz | 1 | inactive
SIFa | 1 | inactive
raw | 1 | active
raw | 2 | inactive
CG15306 | 1 | inactive
